Measured values: the supplement of paper PMC8728848
The list shows a part of the results.

Assays:
Assay in all cases: glycan array binding signal (z-score within array); higher = stronger binding
Conditions in all cases: glycan notation: IUPAC condensed, linker removed
[1] = molecular target: Gal3S(b1-4)Glc
Summary of the method: (§1)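 Glycan array data came from 3228 arrays in the Consortium for Functional Glycomics database, and only arrays with an available protein sequence were kept. Glycan names were put into IUPAC-condensed notation, and columns mapping to the same glycan were averaged. The binding signal is a within-array Z-score, averaged across arrays of one protein sequence run at different concentrations or buffers and across linkers. A negative Z-score can be read as non-binding.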

[2] = molecular target: Gal3S(b1-4)Glc6S
Summary of the method: as §1

[3] = molecular target: Gal3S(b1-4)GlcNAc
Summary of the method: as §1

[4] = molecular target: Gal3S(b1-4)[Fuc(a1-3)]Glc6S
Summary of the method: as §1

[5] = molecular target: Gal3S(b1-4)[Fuc(a1-3)]GlcNAc
Summary of the method: as §1

[6] = molecular target: Gal3S(b1-4)[Fuc(a1-3)]GlcNAc6S
Summary of the method: as §1

[7] = molecular target: Gal3S4S(b1-4)GlcNAc
Summary of the method: as §1

[8] = molecular target: Gal3S6S(b1-4)GlcNAc
Summary of the method: as §1

[9] = molecular target: Gal3S6S(b1-4)GlcNAc6S
Summary of the method: as §1

[10] = molecular target: Gal4S(b1-4)GlcNAc
Summary of the method: as §1

[11] = molecular target: Gal4S6S(b1-4)GlcNAc
Summary of the method: as §1

[12] = molecular target: Gal6P(b1-4)GlcNAc
Summary of the method: as §1

[13] = molecular target: Gal6S(b1-3)GlcNAc
Summary of the method: as §1

[14] = molecular target: Gal6S(b1-3)GlcNAc6S
Summary of the method: as §1

[15] = molecular target: Gal6S(b1-4)Glc
Summary of the method: as §1

[16] = molecular target: Gal6S(b1-4)Glc6S
Summary of the method: as §1

[17] = molecular target: Gal6S(b1-4)GlcNAc
Summary of the method: as §1

[18] = molecular target: Gal6S(b1-4)GlcNAc6S
Summary of the method: as §1

[19] = molecular target: GalNAc(a1-3)Gal
Summary of the method: as §1

[20] = molecular target: GalNAc(a1-3)GalNAc
Summary of the method: as §1

[21] = molecular target: GalNAc(a1-3)GalNAc(b1-3)Gal(a1-4)Gal(b1-4)Glc
Summary of the method: as §1

[22] = molecular target: GalNAc(a1-3)GalNAc(b1-3)Gal(a1-4)Gal(b1-4)GlcNAc
Summary of the method: as §1

[23] = molecular target: GalNAc(b1-3)Gal
Summary of the method: as §1

[24] = molecular target: GalNAc(b1-3)Gal(a1-4)Gal(b1-4)GlcNAc
Summary of the method: as §1

[25] = molecular target: GalNAc(b1-3)Gal(a1-4)Gal(b1-4)GlcNAc(b1-3)Gal(b1-4)Glc
Summary of the method: as §1

[26] = molecular target: GalNAc(b1-3)Gal(a1-6)Gal(b1-4)Glc
Summary of the method: as §1

[27] = molecular target: GalNAc(b1-3)GalNAc
Summary of the method: as §1

[28] = molecular target: GalNAc(b1-3)GlcNAc
Summary of the method: as §1

[29] = molecular target: GalNAc(b1-4)Gal(b1-4)Glc
Summary of the method: as §1

[30] = molecular target: GalNAc(b1-4)GlcNAc
Summary of the method: as §1

B1: Awp1 (Candida glabrata) (protein)
chain: MSLITIFAFLIKATLVLSLDILTPTTLTGDQTFNEDVSVVSSLTLNDGSQYLFNNLLQIAPSSASVTANALAAVSVFTFSLPPSSSLSNSGTLIISNSNTGPSTEQHIVITPNVMANTGTITLSLAHTNTDSSSTLIIDPVTFYNTGTINYESIGSETNDPSLTGNILSIGSSGRTLQNLGTINLNAANSYYLLGTITENSGSINVQKGFLYVNALDFIGNTINLSTTTALAFISPVSQVVRVRGVFFGNIIASVGSSGTFSYNTQTGILTVTTNGVYSYDIGCGYNPALMSGQQETLSFQGNPYDTFLVLVNQPIPSDLTCAAVSSSITPSSSVEPSSSVVPSSSVEPSSSVEPSSSVEPSSSVEPSSSVEPSSSVEPSSSVEPSSSVEPSSSVEPSSSVEPSSSVEPSSSVEPSSSVEPSSSVEPSSSVEPSSSVEPSSSVEPSSSVEPSSSVEPSSLIVPSSSVEPSSSVLPSSSVVPSSSVEPSTPPIPSSSVEPSSSVVPSSPAVPSSSVEPSTPPIPSSSVVSASVFDTSSTLPSSPSVPPSSVSPSTISTPSSSAAPSSFCPTCVSSGTPPAPSSSAIVPTSSAGGGNGGDNREPGAAGQPGAAGQPGAAGQPGAAGQPGAAGQPGAAGQPGAAGQPGAAGQPGAAGQPGAAGQPGAGFGVGSEQPTPGAGAGSGSADGNQSGTGSGTGNGQQGSGQAGSGQAGSGQEGSGQAGSGQAGSGQAGSGQAGSGQAGLDNTASGQSEGGQASAMDGDQSGRDGQSNSGSLLQPNAQQGTGSGTGSDIGADQASGESPGQIGDAQPGSGTDQSSGRHSLAAEARTSQSHSLAADARTRSTTRQTSVIAPDTAPGTASGTAPGTAPGTAVVTTFHGCGTVNHKGMINILLALALLVLL
[1]
  glycan array binding signal (z-score): -0.209
[2]
  glycan array binding signal (z-score): -0.018
[3]
  glycan array binding signal (z-score): -0.254
[4]
  glycan array binding signal (z-score): 0.387
[5]
  glycan array binding signal (z-score): -0.505
[6]
  glycan array binding signal (z-score): 0.421
[7]
  glycan array binding signal (z-score): -1.05
[8]
  glycan array binding signal (z-score): 0.465
[9]
  glycan array binding signal (z-score): 0.942
[10]
  glycan array binding signal (z-score): -0.578
[11]
  glycan array binding signal (z-score): -1.01
[12]
  glycan array binding signal (z-score): 0.76
[13]
  glycan array binding signal (z-score): -0.891
[14]
  glycan array binding signal (z-score): 0.36
[15]
  glycan array binding signal (z-score): -0.577
[16]
  glycan array binding signal (z-score): -0.435
[17]
  glycan array binding signal (z-score): 0.718
[18]
  glycan array binding signal (z-score): 0.772
[19]
  glycan array binding signal (z-score): 0.064
[20]
  glycan array binding signal (z-score): 0.633
[21]
  glycan array binding signal (z-score): -0.907
[22]
  glycan array binding signal (z-score): 0.466
[23]
  glycan array binding signal (z-score): -0.242
[24]
  glycan array binding signal (z-score): 0.743
[25]
  glycan array binding signal (z-score): -0.13
[26]
  glycan array binding signal (z-score): -1.22
[27]
  glycan array binding signal (z-score): -0.489
[28]
  glycan array binding signal (z-score): 0.296
[29]
  glycan array binding signal (z-score): 0.511
[30]
  glycan array binding signal (z-score): -0.049
